# Assay results published in PubChem BioAssay AID504847 (National Center for Advancing Translational Sciences (NCATS), 2011).
# Amino acid sequences for entries named in this document (tags omitted). A change or cut given only in a name is not applied to a line headed by its entry.
# UniProt P11473: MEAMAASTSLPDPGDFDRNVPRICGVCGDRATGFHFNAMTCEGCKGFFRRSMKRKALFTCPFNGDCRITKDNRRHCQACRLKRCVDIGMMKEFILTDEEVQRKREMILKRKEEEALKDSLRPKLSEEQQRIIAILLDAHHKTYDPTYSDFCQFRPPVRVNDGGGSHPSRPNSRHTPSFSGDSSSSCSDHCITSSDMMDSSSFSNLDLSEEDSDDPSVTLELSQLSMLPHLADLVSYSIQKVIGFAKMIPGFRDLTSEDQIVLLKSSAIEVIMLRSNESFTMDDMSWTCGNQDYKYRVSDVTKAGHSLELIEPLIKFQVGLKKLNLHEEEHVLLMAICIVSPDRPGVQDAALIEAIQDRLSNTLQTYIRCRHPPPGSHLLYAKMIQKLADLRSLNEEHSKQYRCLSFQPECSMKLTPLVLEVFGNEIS
# The whole screen tested about 400,000 compounds, of which about 3,700 (0.93%) were called active. The inconclusive results got no clear call from the source; some entries with a clear call stand among them for comparison. Calls come from the whole dose curve; as a rule, active = well fitted inhibition curve with a large enough effect; inconclusive = small, poorly fitted or top-dose-only effect, or another doubt; inactive = no such curve, though single readings can be large or run the other way. Where the call is inconclusive, the potency comes from a doubtful curve fit.
# Molecular target: Vitamin D3 receptor (Homo sapiens) (UniProt P11473)
# Assay: Inhibitors of the vitamin D receptor (VDR): qHTS
# Settings: VDR-SRC2-3 peptide fluorescence polarization, 2 h; max response, negative = inhibition: stronger effect = lower value
# In short: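 VDR–SRC2-3 interaction, FP format. Cmpds 23 nl via pintool, brief spin, 2 h ambient incubation.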
# % is set by controls: 0 for no effect and ±100 for the full control effect; potency is the fitted concentration of half-maximal effect.
SMILES,"max response, negative = inhibition",Potency
Cc1ccc(C(=O)OCC(=O)Nc2ccccc2)cc1NC(=O)c1ccco1,inactive: 4.99%,–
O=C(Cn1c(=O)n(Cc2nc(-c3ccccc3)no2)c(=O)c2cc3c(cc21)OCO3)Nc1ccccc1,inactive: 22%,–
N#CC(C#N)=C1C=CC=CN1/C(=C\c1ccccc1)C(=O)c1cccs1,–,"inconclusive: 70.8 µM [inhibitor, partial curve, poor fit]"
Cc1cccc(-c2cc3nc4c(c(N5CCCC(O)C5)n3n2)CCC4)c1 (stereo unspecified),inactive: -4.03%,–
CCCCCCn1c(SCC(=O)OC)nc2c1c(=O)[nH]c(=O)n2C,–,active: 22.4 µM
O=C(O)/C=C1\CCCc2ccccc2C1O (stereo unspecified),–,"inconclusive: 89.1 µM [inhibitor, single point]"
Cc1ccc(C2C(C(=O)c3cc4ccccc4o3)=C(O)C(=O)N2c2cc(C)on2)cc1 (stereo unspecified),–,active: 79.4 µM
CC(=O)Nc1ccc(C2=NNC(=NCC3CCCO3)SC2)cc1 (stereo unspecified),–,"inconclusive: 56.2 µM [inhibitor, partial curve, poor fit]"
C=CCn1c(SCc2ccccc2)nc2c1c(=O)[nH]c(=O)n2C,–,"inconclusive: 1.41 µM [inhibitor, full curve, poor fit]"
CCN1CCc2c(sc(NC(=S)NC(=O)c3cccc(F)c3)c2C(N)=O)C1,–,"inconclusive: 89.1 µM [inhibitor, partial curve, poor fit]"
O=C(CSc1nc2ccccc2s1)NNC(=S)Nc1ccc(Br)cc1,–,"inconclusive: 79.4 µM [inhibitor, partial curve, poor fit]"
CCOc1cc(C2C3=C(CCCC3=O)N(C)C3=C2C(=O)CCC3)cc(Cl)c1O,inactive: -1.1%,–
CCOc1ccc(NC(=O)CSC2=Nc3ccccc3C3=NC(CC(=O)NCc4cccs4)C(=O)N23)cc1 (stereo unspecified),inactive: -5.25%,–
O=c1c2ccccc2n2c(=S)[nH]nc2n1-c1ccccc1,inactive: -4.94%,–
CC(=O)N/C(=C/c1ccc(OS(=O)(=O)c2ccc(C)cc2)cc1)C(=O)NCCCO,–,"inconclusive: 89.1 µM [inhibitor, partial curve, poor fit]"
COc1ccc(/C=N/NC(=O)c2ccc3c(c2)OCO3)cc1,inactive: 17.3%,–
Fc1ccc(/C=C2\CCCC3=C2Nc2ncnn2C3c2ccc(F)cc2)cc1 (stereo unspecified),–,"inconclusive: 31.6 µM [inhibitor, single point]"
Oc1ccc(/C=N/N(c2ccccc2)c2ccccc2)cc1O,inactive: -7.47%,–
COC(=O)c1ccc(NN=Nc2ccc(C)cc2)cc1,–,"inconclusive: 50.1 µM [inhibitor, partial curve]"
O=C(/C=C/c1ccc(Cl)cc1)NC1CCS(=O)(=O)C1 (stereo unspecified),–,"inconclusive: 50.1 µM [inhibitor, partial curve]"
Cc1cccc(-c2cc3c(N=O)c4ccccc4c-3n[nH]2)c1,inactive: -22.6%,–
O=[N+]([O-])c1cccc(C2CC(c3ccccc3)=NN2c2ccccc2)c1 (stereo unspecified),–,"inconclusive: 89.1 µM [inhibitor, single point]"

SMILES,"max response, negative = inhibition",Potency
COC(=O)CSc1[nH]c2ccc(Br)cc2c1[N+](=O)[O-],–,"inconclusive: 11.2 µM [inhibitor, full curve]"
Cc1cccc(-c2nnc(-c3cccc(NC(=O)Cc4cccs4)c3)o2)c1,inactive: 13.5%,–
CCc1cc2ccc(OC)cc2nc1SCC(=O)N1CCN(C(=O)c2ccco2)CC1,–,"inconclusive: 15.8 µM [inhibitor, partial curve, poor fit]"
CC1=C(/C=C/C(C)=C/C=C/C(C)=C/CO)C(C)(C)CCC1,–,"inconclusive: 100 µM [inhibitor, partial curve, poor fit]"
O=C(Cn1c2[n+](c3ccc(C(F)(F)F)cc31)CCCCC2)Nc1ccc(Br)cc1,inactive: 6.9%,–
CCN(C(=O)c1ccc2c(SCC(=O)O)c3c(nc2c1)CCC3)c1cc(Cl)ccc1OC,–,"inconclusive: 89.1 µM [inhibitor, partial curve, poor fit]"
O=[N+]([O-])c1ccc(S(=O)(=O)NN=Cc2ccc(Cl)c(Cl)c2)cc1,–,active: 50.1 µM
CCOc1ccc(-c2nc(C#N)c(N3CCN(C)CC3)o2)cc1,inactive: 5.86%,–
CSc1ncccc1C(=O)NC1CCCc2c1cnn2-c1ccc(C)c(C)c1 (stereo unspecified),–,"inconclusive: 89.1 µM [inhibitor, single point]"
Cc1cccc(OCCSc2nncn2C)c1,inactive: -11.8%,–
CC(C)CC(=O)n1sc(NC(=O)c2ccccc2)nc1=O,–,active: 44.7 µM
COc1ccccc1S(=O)(=O)Nc1ccc2cn[nH]c2c1,inactive: -0.454%,–
CCS(=O)(=O)c1ncc(Cl)c(C(=O)N2CCN(c3ccc(OC)cc3)CC2)n1,–,"inconclusive: 39.8 µM [inhibitor, single point]"
O=C(C#Cc1ccccc1)c1cccc([N+](=O)[O-])c1,–,"inconclusive: 10 µM [inhibitor, full curve, poor fit]"
COC1=C/C(=C/c2c(N)n3nc(CC(=O)N4CCOCC4)sc3nc2=O)C=CC1=O,–,"inconclusive: 100 µM [inhibitor, partial curve, poor fit]"
O=C1NC(=Nc2ccccc2Cl)S/C1=C\c1cccc([N+](=O)[O-])c1,–,"inconclusive: 35.5 µM [inhibitor, partial curve, poor fit]"
O=c1nc2s/c(=C\c3ccco3)c(=O)n2nc1Cc1ccc(F)cc1,–,"inconclusive: 89.1 µM [inhibitor, single point]"
COc1ccccc1NC(=O)CN1CCN(CC(=O)Nc2ccc(S(N)(=O)=O)cc2)CC1,inactive: -8.42%,–
COc1ccc(N=C2S/C(=C\c3ccc(Cl)c([N+](=O)[O-])c3)C(=O)N2CCN(C)C)cc1,–,"inconclusive: 89.1 µM [inhibitor, single point]"
N#Cc1c(-c2ccc(Cl)cc2)cc(-c2cccs2)nc1SCC(=O)O,–,"inconclusive: 89.1 µM [inhibitor, partial curve]"
CC(=O)Oc1cc(C(=O)OCC(=O)N2CCc3ccccc3C2)cc(OC(C)=O)c1OC(C)=O,–,"inconclusive: 56.2 µM [inhibitor, partial curve, poor fit]"
COc1ccc(F)cc1S(=O)(=O)n1cc(C)nc1-c1ccccc1,–,"inconclusive: 28.2 µM [inhibitor, partial curve, poor fit]"

# Reprinted at random: 2 records from the list, in no set order.
SMILES,"max response, negative = inhibition",Potency
CCc1cc2ccc(OC)cc2nc1SCC(=O)N1CCN(C(=O)c2ccco2)CC1,–,"inconclusive: 15.8 µM [inhibitor, partial curve, poor fit]"
O=C(C#Cc1ccccc1)c1cccc([N+](=O)[O-])c1,–,"inconclusive: 10 µM [inhibitor, full curve, poor fit]"

# Remaining list, next part.

SMILES,"max response, negative = inhibition",Potency
Cc1ccc2nc(/C(C#N)=C/c3ccccc3F)[nH]c2c1,–,"inconclusive: 100 µM [inhibitor, partial curve, poor fit]"
CC1=C(/C=C/C(C)=C/C=C/C(C)=C\CO)C(C)(C)CCC1,–,"inconclusive: 44.7 µM [inhibitor, partial curve]"
CCCCn1c(=O)c2[nH]c(C34CC5CC(CC3C5)C4)nc2n(CCCO)c1=O,–,"inconclusive: 79.4 µM [inhibitor, single point]"
COc1cc(NC(=S)N2CCCC(C)C2)c(OC)cc1Cl (stereo unspecified),–,"inconclusive: 89.1 µM [inhibitor, single point]"
COc1ccc(OC)c(CNS(=O)(=O)c2cc(CN3C(=O)c4cccnc4C3=O)ccc2OC)c1,–,"inconclusive: 39.8 µM [inhibitor, partial curve, poor fit]"
CC(C)Oc1ccc(C(=O)/C=C2/C(=O)Nc3ccccc32)cc1,–,active: 28.2 µM
CNc1n[nH]c(=S)s1,–,"inconclusive: 25.1 µM [inhibitor, full curve]"
Cc1ccc(S(=O)(=O)C(C#N)=C2N(C)c3ccccc3N2C)cc1,–,"inconclusive: 89.1 µM [inhibitor, single point]"
CN(C)S(=O)(=O)c1ccc(C(=O)NCCC(=O)N2CCCC2)cc1,–,"inconclusive: 79.4 µM [inhibitor, single point]"
O=C(Nc1ccc(Oc2c(F)c(F)c(F)c(F)c2F)cc1)OC1CCN2Cc3ccccc3N=C12 (stereo unspecified),inactive: -21%,–
CCCC(=O)Nc1ccc2nn(-c3ccc(OC)cc3)nc2c1,–,"inconclusive: 89.1 µM [inhibitor, single point]"
Clc1ccc(C[n+]2csc3ccccc32)cc1,–,active: 50.1 µM
COc1cccc(CN2CCNC(=O)C2CC(=O)N2CCCCO2)c1OC (stereo unspecified),inactive: -10.2%,–
c1cnc2ccc(C(c3nnnn3C3CCCCC3)N3CCCCC3)cc2c1 (stereo unspecified),–,"inconclusive: 44.7 µM [inhibitor, partial curve, poor fit]"
CC(C(=O)Nc1nncs1)N1C(=O)C2C3C=CC(C3)C2C1=O (stereo unspecified),–,"inconclusive: 100 µM [inhibitor, single point]"
CC(=O)N(c1ccc2oc(=O)sc2c1)S(=O)(=O)c1cccc2cccnc12,–,"inconclusive: 89.1 µM [inhibitor, single point]"
CCCC(=O)N(C1CC(C)C(C#N)(C#N)C1(C#N)C#N)N(C)C (stereo unspecified),–,active: 8.91 µM
COC(=O)CCC(=O)OC1(C)C(=O)C2=CN(c3ccccc3)C(c3ccc(OC)cc3)=CC2=C(Br)C1=O (stereo unspecified),–,"inconclusive: 70.8 µM [inhibitor, partial curve, poor fit]"
Cc1ccc(C(CCN(Cc2ccccc2)C(=O)c2ccco2)c2ccco2)cc1 (stereo unspecified),–,"inconclusive: 100 µM [inhibitor, single point]"
COc1cc(C)cc(C(=O)C=Cc2ccccc2)c1O,–,"inconclusive: 25.1 µM [inhibitor, full curve, poor fit]"
O=C(C[C@H]1C/C=C/CC[C@H](Cc2ccc(F)cc2)C(=O)O[C@H](c2ccccc2)CNC1=O)NCCO,–,"inconclusive: 89.1 µM [inhibitor, partial curve]"
CC1=NN(c2cccc(Cl)c2)C(=O)C12CC(C)=C(C)CS2 (stereo unspecified),–,"inconclusive: 89.1 µM [inhibitor, single point]"
